This assay is described as follows: qHTS Assay to Find Inhibitors of Chronic Active B-Cell Receptor Signaling. The settings on record: ABC-DLBCL IkBa-CBG/CBR reporter, luminescence ratio (green luciferase fused to IkBa over red control in TMD8 lymphoma cells), 4 h. The gist of the method:
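Doxycycline induced both beetle luciferases in TMD8 lymphoma cells; IKK-driven degradation limits the IkappaBalpha-fused green signal, while red luminescence normalises for cell number and nonspecific effects. Compounds tested up to 46 uM, 4 hrs.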
(In qHTS, concentration-response curves come from the screen itself.)

[1] abbreviates: measured here: CBR red luminescence, cell number.
The mark [2] stands for this setting: measured here: IkBa-CBG green luminescence.

Some of the results follow. Shown are side measurements of this screen, not its main read-out; they come without a call. Most of these compounds were active or inconclusive in the main read-out, so they are no random draw. Words in brackets tell the shape of the fitted curve; partial curves, single points and poor fits give uncertain potencies.

This is an account of results in PubChem BioAssay AID493014 (National Center for Advancing Translational Sciences (NCATS), 2011).

One may read the AC50 as the concentration at which the activity in the assay is half-maximal.

As for `O=C(O)CCSc1ccc([N+](=O)[O-])cc1[N+](=O)[O-]`, the AC50 is, setting by setting: under setting [1], 35.5 µM [rising, single point]; under setting [2], 35.5 µM [falling, single point].

With `FC(F)(F)c1cccc(NC(=S)NCc2ccc(Cl)cc2)c1`, under setting [1], the AC50 is 22.4 µM [falling, partial curve, poor fit]. For `CC1(C)CC(=O)C(/C=N/c2ncccc2C(=O)O)=C(O)C1`, the AC50 reads like this: under setting [1], 18.4 µM [rising, single point]; under setting [2], 29.1 µM [falling, single point]. Take `O=C1N[C@H](Cc2ccccc2)COC(=O)[C@@H](Cc2ccc(F)cc2)CC/C=C/C[C@H]1CC(=O)N(CCO)Cc1ccccc1`: the AC50 under setting [1] is 8.2 µM [falling, single point].

On to `COc1ccc(Cc2nc3ccccc3[nH]c2=O)cc1`, for which the AC50 under setting [1] is 1.41 µM [falling, partial curve, poor fit].

In the case of `CCCc1[nH]n(-c2ccc([N+](=O)[O-])cc2)c(=O)c1C=NCCc1c[nH]c2ccccc12`, the AC50 under setting [1] is 0.58 µM [rising, partial curve, poor fit]. `COc1ccccc1/C=C1\CCCC2=C1Nc1nnnn1C2c1ccccc1OC` (centres undefined): the AC50 under setting [1] is 29.1 µM [falling, single point]. Regarding `COc1ccc(C(=O)Oc2ccc[nH]c2=O)cc1`, the AC50 under setting [1] was 3.98 µM [falling, single point]. As for `CCN(CC)c1c([N+](=O)[O-])c(=O)n(CC)c2ccccc12`, the AC50 under setting [1] was 0.141 µM [rising, full curve, poor fit]. Same read-out and setting: the result for `O=C(CSc1nn(-c2ccccc2)c(=S)s1)NC(=O)NCc1ccco1` reads 0.164 µM [falling, full curve, poor fit].

In the case of `CN(C)/C=N/c1sc2c(c1C#N)CCCC2`, the AC50 under setting [1] was 11.2 µM [rising, partial curve, poor fit] and the AC50 under setting [2] is 17.8 µM [falling, partial curve]. As for `COc1cccc(CNC(=O)C2Cc3cc(S(=O)(=O)N4CCCC4)ccc3N2C(C)=O)c1OC` (centres undefined), under setting [1], the AC50 was 12.6 µM [rising, partial curve, poor fit].

On to `O=C1CSC(=Nc2cccc(C(=O)O)c2)N1`, for which, under setting [1], the AC50 was 25.1 µM [falling, single point]. Consider `Cc1cc(F)ccc1S(=O)(=O)N1CCCOC1CNC(=O)C(=O)NCc1cccnc1` (centres undefined), for which the AC50 under setting [1] was 5.01 µM [rising, partial curve, poor fit].

As for `CCc1cccc(CC)c1N(COC)C(=O)Cn1ccccc1=N`, the AC50 under setting [1] was 2.82 µM [rising, partial curve, poor fit].

On to `C=C(C(=O)c1ccccc1)C(C)CC(=O)c1ccccc1` (centres undefined), for which, under setting [1], the AC50 was 10.3 µM [falling, partial curve].
